Patent US20180185455A1 (OCTAPHARMA, published 2018)
Results are given in words; binding and its absence hold for the method and conditions named. Some entries that bind do so weakly or less than the wild type.

Amino acid sequences for entries named in this document (tags omitted). A change or cut given only in a name is not applied to a line headed by its entry. Residues count along the entry.
UniProt P02461, residues 168-1196: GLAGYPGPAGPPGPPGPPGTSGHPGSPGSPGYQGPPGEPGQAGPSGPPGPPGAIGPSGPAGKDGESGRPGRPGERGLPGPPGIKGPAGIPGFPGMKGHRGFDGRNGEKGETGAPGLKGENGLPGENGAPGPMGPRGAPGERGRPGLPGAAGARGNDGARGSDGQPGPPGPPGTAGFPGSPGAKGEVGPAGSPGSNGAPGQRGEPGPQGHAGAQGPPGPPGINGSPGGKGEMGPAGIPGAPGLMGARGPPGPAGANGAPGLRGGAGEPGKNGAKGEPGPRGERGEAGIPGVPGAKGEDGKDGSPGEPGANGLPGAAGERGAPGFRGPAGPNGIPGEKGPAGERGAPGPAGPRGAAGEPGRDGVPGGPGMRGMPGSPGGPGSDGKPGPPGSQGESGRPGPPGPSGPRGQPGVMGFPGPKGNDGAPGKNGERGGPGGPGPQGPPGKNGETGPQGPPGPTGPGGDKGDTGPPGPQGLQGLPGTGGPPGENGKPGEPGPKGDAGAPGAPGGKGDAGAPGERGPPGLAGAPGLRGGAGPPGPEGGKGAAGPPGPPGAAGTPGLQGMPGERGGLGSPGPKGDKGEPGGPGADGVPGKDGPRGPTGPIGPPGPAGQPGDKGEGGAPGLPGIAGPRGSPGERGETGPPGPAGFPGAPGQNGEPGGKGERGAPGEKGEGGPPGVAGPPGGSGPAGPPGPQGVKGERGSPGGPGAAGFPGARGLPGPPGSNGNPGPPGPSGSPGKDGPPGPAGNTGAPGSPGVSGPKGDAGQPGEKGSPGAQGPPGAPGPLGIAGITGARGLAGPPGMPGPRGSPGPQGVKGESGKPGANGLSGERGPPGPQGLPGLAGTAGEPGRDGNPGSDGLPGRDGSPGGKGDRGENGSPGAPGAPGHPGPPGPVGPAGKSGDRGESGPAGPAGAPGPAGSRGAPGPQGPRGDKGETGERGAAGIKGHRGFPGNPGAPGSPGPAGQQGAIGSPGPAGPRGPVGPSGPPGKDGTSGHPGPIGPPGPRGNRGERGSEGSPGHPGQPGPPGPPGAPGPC
UniProt P04275: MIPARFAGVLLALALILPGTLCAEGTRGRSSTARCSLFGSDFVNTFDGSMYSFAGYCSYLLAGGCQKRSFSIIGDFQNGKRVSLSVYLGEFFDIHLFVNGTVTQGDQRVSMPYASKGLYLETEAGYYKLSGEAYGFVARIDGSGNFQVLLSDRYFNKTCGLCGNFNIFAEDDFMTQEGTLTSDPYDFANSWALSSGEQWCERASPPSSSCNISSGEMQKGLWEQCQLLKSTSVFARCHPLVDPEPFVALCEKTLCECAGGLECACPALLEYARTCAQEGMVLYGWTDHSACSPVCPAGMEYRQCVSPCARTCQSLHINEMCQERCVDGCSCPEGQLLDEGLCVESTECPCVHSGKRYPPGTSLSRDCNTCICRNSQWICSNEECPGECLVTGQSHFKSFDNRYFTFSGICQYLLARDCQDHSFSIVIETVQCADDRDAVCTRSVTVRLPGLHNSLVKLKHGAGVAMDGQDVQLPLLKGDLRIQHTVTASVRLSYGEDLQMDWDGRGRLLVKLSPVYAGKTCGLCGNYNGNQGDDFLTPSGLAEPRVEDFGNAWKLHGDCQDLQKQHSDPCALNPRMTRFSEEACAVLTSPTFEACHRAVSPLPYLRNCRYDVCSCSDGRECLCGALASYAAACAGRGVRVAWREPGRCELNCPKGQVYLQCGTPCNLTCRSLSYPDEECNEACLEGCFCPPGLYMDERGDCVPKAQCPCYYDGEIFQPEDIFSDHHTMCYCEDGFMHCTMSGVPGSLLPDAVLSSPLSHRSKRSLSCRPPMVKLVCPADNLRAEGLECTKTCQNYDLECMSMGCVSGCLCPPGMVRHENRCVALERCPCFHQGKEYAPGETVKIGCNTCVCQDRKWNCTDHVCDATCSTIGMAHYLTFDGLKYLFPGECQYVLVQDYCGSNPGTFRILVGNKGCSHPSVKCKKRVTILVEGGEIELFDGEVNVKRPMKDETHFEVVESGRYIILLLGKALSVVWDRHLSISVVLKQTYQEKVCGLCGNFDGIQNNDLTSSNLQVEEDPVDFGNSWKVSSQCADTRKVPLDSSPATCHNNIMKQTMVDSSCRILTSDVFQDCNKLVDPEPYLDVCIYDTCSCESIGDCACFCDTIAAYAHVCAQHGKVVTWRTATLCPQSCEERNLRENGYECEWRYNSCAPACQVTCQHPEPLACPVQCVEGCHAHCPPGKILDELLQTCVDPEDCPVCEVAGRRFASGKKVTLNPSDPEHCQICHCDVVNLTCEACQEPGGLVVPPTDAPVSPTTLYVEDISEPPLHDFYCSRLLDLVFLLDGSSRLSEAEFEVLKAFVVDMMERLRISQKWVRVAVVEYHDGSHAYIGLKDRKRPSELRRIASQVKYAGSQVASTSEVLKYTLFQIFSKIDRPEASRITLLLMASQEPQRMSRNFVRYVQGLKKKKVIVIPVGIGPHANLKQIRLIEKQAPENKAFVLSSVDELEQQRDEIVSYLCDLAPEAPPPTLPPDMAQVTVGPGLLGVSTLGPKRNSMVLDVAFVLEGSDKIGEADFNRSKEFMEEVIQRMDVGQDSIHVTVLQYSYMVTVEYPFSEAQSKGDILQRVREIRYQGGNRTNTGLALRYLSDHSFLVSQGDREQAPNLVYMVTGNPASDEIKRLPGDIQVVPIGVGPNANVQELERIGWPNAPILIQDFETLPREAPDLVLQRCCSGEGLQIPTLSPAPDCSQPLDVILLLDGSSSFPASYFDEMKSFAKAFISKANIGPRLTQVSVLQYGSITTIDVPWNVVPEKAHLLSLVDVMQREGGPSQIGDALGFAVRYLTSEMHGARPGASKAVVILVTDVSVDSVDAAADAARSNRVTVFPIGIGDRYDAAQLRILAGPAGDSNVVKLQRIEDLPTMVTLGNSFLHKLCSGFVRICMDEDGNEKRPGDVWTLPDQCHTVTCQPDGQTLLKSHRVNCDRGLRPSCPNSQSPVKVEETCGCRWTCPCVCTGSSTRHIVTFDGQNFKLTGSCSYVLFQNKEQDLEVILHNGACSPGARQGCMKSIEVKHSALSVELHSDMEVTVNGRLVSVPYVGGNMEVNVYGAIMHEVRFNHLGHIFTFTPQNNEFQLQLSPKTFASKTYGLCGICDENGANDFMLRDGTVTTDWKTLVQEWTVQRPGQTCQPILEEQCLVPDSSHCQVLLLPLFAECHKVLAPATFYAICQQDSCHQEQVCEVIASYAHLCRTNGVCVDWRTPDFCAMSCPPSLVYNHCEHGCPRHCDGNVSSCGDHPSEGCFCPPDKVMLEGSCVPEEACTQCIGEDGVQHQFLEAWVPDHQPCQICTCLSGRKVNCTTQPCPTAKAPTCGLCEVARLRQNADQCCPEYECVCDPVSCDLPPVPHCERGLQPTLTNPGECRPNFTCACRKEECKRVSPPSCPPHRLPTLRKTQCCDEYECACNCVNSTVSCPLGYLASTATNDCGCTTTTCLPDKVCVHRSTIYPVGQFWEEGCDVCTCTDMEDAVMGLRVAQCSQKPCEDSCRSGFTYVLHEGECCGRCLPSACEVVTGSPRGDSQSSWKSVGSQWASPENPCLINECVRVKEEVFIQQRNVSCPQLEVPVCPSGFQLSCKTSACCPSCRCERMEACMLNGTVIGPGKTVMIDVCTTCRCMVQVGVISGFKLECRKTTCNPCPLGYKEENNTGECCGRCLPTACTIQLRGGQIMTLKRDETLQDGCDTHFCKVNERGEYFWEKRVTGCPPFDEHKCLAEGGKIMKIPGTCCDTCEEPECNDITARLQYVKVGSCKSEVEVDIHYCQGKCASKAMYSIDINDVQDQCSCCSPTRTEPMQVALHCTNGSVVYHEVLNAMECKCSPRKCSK

Biological target: human pepsin-digested collagen type III (human) (UniProt P02461)
Assay: SPR, immobilized collagen type III

plasma derived full length Von Willebrand Factor (from UniProt P04275 764-2813)
binding: binds

fragment III (SPIII, res. 764-2128) from plasma derived Von Willebrand Factor (from UniProt P04275 764-2128)
binding: binds
